Results reported in PMC4527612 (Journal of inorganic biochemistry, 2014).

Assays:
[1] = system: MCF-7 (breast adenocarcinoma); test: Dark cytotoxicity, Trypan blue exclusion test; assay type: cell-based, human; conditions: read-out: IC50 (μM) ± S.E.M. MCF-7, 48 h incubation
HeLa (cervix carcinoma) = test: Dark cytotoxicity, Trypan blue exclusion test; assay type: cell-based, human; conditions: read-out: IC50 (μM) ± S.E.M. HeLa, 48 h incubation
In short: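 HeLa cells were grown in DMEM with 10% FBS, 2 mM L-glutamine and penicillin/streptomycin at 37 °C. They were seeded at 0.5 × 10^6/mL in glass vials, given 24 h, then exposed for 48 h in the dark to test compound in distilled water at various concentrations. Cells were trypsinised, stained 5–15 min with 0.4% Trypan blue and counted by hemocytometer. […] IC50 was derived from at least three experiments, mean ± S.E.M.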

For `N.N.[Cl][Pt][Cl]` [Cisplatin, cisplatin, reference compound], the IC50 [1] was 46.7 ± 3.6 µM and the IC50 (HeLa (cervix carcinoma)) was 11 ± 1.4 µM.
